Experimental findings from article doi:10.1101/377275 are described below.

Sequences of proteins named here, by UniProt entry; tags and fusion partners are left off.
UniProt Q9WVL2: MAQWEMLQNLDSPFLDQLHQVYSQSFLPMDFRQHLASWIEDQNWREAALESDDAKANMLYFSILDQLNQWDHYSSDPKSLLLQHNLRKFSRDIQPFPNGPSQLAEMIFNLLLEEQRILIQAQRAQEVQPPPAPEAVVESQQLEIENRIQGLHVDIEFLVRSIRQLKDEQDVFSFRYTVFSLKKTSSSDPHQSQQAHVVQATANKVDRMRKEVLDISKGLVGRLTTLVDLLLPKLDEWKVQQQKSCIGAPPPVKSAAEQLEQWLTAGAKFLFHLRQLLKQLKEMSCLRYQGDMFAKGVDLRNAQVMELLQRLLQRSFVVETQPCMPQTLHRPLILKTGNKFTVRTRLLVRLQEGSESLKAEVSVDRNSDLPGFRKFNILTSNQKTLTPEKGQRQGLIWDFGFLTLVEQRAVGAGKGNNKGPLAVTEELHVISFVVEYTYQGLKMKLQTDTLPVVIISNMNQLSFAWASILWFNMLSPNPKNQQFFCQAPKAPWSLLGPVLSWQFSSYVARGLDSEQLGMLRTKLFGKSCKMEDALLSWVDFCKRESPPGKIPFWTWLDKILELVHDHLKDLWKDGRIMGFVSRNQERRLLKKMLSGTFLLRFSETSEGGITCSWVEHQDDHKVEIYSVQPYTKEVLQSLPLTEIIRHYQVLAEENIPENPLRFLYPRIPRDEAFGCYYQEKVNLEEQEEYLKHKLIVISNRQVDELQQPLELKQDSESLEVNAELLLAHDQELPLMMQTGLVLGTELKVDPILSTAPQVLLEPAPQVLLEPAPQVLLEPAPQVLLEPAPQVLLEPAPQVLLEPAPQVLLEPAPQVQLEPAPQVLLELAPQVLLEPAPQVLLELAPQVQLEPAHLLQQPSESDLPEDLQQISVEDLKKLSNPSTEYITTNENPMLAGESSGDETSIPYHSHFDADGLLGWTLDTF
UniProt Q8CHI8: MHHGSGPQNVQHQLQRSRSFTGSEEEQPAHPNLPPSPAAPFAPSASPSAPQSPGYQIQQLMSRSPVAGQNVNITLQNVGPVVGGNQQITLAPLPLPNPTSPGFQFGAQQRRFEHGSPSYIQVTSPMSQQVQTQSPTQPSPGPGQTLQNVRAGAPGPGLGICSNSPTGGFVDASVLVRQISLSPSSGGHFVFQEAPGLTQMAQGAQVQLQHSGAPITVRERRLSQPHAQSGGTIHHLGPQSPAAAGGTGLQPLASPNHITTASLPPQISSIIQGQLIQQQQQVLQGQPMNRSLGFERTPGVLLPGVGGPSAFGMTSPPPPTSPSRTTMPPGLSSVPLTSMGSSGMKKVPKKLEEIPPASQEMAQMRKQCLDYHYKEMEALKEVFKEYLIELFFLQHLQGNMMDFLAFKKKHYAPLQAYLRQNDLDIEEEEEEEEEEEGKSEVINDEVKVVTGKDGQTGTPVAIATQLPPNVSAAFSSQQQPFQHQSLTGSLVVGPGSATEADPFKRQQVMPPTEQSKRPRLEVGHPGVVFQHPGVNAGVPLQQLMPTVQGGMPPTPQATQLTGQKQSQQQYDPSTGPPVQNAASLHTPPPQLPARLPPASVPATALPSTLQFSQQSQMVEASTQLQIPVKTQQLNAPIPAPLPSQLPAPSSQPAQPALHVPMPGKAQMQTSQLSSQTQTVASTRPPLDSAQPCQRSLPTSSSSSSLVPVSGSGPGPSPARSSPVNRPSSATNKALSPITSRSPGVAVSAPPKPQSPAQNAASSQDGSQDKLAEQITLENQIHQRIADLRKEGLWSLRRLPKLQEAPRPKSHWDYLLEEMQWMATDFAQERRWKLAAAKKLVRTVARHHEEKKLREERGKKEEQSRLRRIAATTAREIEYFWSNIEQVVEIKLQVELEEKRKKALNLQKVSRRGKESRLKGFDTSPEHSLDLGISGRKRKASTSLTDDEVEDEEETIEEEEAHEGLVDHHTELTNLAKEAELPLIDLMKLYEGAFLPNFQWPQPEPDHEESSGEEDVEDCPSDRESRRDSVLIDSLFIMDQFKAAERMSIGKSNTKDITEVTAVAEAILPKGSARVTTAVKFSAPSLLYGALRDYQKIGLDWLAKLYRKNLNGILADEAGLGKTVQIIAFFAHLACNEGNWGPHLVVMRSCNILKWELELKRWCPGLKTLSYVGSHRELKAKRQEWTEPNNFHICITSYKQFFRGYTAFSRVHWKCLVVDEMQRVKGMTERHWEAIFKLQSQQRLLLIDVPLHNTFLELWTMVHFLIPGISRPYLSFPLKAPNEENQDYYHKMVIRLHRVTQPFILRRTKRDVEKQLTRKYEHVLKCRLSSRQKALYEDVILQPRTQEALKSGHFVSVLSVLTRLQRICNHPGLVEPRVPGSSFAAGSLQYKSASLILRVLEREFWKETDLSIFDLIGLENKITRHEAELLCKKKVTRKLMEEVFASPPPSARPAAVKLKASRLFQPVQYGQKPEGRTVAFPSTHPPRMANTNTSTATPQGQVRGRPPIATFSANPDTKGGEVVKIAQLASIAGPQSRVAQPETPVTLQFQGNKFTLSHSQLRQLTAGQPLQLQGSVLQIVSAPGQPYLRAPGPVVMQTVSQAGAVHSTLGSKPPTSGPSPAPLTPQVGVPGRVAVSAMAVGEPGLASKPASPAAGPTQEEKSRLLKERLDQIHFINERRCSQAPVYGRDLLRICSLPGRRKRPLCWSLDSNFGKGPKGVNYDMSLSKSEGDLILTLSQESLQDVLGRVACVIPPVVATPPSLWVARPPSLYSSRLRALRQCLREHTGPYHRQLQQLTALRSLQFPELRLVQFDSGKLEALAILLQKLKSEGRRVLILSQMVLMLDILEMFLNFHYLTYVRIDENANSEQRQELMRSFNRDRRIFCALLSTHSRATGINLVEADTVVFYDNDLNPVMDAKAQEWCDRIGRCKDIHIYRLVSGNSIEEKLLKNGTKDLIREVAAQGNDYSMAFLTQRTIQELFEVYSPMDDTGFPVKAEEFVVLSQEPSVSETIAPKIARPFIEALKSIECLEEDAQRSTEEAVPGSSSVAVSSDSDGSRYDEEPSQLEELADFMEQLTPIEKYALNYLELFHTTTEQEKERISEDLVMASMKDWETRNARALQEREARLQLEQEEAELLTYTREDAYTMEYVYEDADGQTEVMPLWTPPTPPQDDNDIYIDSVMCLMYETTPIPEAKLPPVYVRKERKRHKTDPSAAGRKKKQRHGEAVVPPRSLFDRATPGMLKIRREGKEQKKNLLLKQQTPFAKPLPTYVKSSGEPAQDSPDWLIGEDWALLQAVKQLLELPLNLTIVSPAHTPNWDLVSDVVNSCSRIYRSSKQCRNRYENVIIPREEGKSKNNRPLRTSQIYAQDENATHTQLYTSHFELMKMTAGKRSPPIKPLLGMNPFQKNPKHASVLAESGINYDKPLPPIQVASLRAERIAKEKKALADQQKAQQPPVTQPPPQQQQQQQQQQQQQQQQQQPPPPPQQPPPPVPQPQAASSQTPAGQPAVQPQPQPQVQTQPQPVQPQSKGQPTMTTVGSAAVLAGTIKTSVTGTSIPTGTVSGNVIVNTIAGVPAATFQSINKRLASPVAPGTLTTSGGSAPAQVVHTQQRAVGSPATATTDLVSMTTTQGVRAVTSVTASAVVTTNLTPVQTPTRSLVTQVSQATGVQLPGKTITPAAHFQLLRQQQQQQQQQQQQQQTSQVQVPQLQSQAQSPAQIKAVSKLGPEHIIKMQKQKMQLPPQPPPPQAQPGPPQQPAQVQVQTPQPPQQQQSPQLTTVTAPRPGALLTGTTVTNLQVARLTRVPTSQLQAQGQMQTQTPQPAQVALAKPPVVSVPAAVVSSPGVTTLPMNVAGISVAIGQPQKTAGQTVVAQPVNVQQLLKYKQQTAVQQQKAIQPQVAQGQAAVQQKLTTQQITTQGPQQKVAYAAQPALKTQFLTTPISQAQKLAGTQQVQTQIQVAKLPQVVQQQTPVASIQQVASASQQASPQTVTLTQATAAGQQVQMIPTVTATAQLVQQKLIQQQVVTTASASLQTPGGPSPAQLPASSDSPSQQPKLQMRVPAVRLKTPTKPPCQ
UniProt P60122: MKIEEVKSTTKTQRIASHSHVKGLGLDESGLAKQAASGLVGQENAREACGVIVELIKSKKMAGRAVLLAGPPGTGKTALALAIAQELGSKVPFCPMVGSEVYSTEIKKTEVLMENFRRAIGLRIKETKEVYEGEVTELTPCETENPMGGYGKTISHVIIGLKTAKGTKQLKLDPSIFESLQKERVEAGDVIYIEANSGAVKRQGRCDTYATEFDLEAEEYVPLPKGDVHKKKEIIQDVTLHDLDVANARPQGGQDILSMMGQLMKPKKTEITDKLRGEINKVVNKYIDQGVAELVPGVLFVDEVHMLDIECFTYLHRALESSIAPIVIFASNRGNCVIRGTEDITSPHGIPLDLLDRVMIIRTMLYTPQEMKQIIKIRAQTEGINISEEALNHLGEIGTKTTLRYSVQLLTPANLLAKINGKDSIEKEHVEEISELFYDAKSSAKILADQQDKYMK
UniProt Q9WTM5: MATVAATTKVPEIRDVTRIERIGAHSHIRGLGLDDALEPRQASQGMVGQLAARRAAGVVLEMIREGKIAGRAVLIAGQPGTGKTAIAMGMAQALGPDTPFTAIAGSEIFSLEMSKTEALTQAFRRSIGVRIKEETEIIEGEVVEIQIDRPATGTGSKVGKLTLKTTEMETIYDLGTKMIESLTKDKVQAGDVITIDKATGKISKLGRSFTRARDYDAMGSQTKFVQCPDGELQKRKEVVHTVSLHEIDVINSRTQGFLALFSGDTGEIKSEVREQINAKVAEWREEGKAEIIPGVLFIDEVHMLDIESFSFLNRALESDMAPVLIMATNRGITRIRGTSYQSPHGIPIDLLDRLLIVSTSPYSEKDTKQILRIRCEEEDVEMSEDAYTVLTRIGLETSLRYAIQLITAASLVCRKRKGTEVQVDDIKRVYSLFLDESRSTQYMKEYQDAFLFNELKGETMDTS

Holding throughout (assay): proximity labelling
The target of experiment [1] is T1, myc-tagged IRF9-BirA* fusion protein (mouse) (UniProt Q61179).
T1 sequence: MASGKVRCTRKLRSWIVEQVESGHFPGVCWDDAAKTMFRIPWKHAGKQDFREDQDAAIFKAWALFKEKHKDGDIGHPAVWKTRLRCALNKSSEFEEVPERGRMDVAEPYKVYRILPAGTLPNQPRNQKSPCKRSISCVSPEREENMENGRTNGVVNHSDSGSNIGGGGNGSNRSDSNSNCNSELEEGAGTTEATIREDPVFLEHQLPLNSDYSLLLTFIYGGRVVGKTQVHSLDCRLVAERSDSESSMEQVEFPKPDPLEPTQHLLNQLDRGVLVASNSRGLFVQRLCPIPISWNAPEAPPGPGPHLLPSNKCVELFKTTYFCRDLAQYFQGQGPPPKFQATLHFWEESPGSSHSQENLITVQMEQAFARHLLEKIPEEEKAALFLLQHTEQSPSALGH

For experiment [2], the target named is myc-tagged STAT2-BirA* fusion protein (mouse) (UniProt Q9WVL2).
Experiment [3] shares this target. The source holds these as a separate data set.
For experiment [4] the target is unchanged. The source holds these as a separate data set.
The target in experiment [5] is T2, myc-tagged IRF9-BirA* fusion protein (mouse), Q61179.
T2 chain: T1 sequence
Conditions: remark: other sources report otherwise.

The target of experiment [6] is T2, myc-tagged IRF9-BirA* fusion protein …. Conditions: remark: other sources report otherwise.

Read-outs that look alike come from different tables or passages of the source. These are yes or no findings as the source states them, for the method shown. Binding seen in cells or lysates may run through a third protein. A yes stands for co-enrichment or nearness to the bait. Other partners may have been found. For some assays here: No binding means not detected with the bait. For some assays here: Sequences can lack the tags named with a protein.

As for Ep400 (from UniProt Q8CHI8 1-3072), the binding result in experiment [1] and in experiment [2] was “binds” throughout.

With RVB1 (from UniProt P60122 1-456), the binding result in experiment [2] is reported as “no binding”.

Turning to RVB2 (from UniProt Q9WTM5 1-463), the binding entry in experiment [2] was “no binding”.

B1: interferon regulatory factor 9 (IRF9) (protein, UniProt Q61179 1-399)
chain: T1 sequence
In the case of B1, the binding result in experiment [3] and in experiment [4] was “binds” throughout.

B2: STAT1, P42225 1-749 (protein)
chain: MSQWFELQQLDSKFLEQVHQLYDDSFPMEIRQYLAQWLEKQDWEHAAYDVSFATIRFHDLLSQLDDQYSRFSLENNFLLQHNIRKSKRNLQDNFQEDPVQMSMIIYNCLKEERKILENAQRFNQAQEGNIQNTVMLDKQKELDSKVRNVKDQVMCIEQEIKTLEELQDEYDFKCKTSQNREGEANGVAKSDQKQEQLLLHKMFLMLDNKRKEIIHKIRELLNSIELTQNTLINDELVEWKRRQQSACIGGPPNACLDQLQTWFTIVAETLQQIRQQLKKLEELEQKFTYEPDPITKNKQVLSDRTFLLFQQLIQSSFVVERQPCMPTHPQRPLVLKTGVQFTVKSRLLVKLQESNLLTKVKCHFDKDVNEKNTVKGFRKFNILGTHTKVMNMEESTNGSLAAELRHLQLKEQKNAGNRTNEGPLIVTEELHSLSFETQLCQPGLVIDLETTSLPVVVISNVSQLPSGWASILWYNMLVTEPRNLSFFLNPPCAWWSQLSEVLSWQFSSVTKRGLNADQLSMLGEKLLGPNAGPDGLIPWTRFCKENINDKNFSFWPWIDTILELIKNDLLCLWNDGCIMGFISKERERALLKDQQPGTFLLRFSESSREGAITFTWVERSQNGGEPDFHAVEPYTKKELSAVTFPDIIRNYKVMAAENIPENPLKYLYPNIDKDHAFGKYYSRPKEAPEPMELDDPKRTGYIKTELISVSEVHPSRLQTTDNLLPMSPEEFDEMSRIVGPEFDSMMSTV
As for B2, the binding entry in experiment [5] and in experiment [6] was “no binding” each time.
